US11771779B2, “Non-metallic magnetic resonance contrast agent” (HADASIT MEDICAL RESEARCH SERVICES & DEVELOPMENT LIMITED, priority 2018, dated 2023)
Like-named read-outs stand apart in the source and are kept apart here.

Experiments:
[1] = for time hyperpolarized signal observed: co-polarized nitrate 29 mM and nitrite 47 mM in D2O, 37-42° C., FIG. 4A
Description: The dissolution process is detailed in the results section. […] Unless otherwise stated, the dissolved hyperpolarized solution was directly injected to a screw cup 10 mm NMR tube in a 5.8T NMR spectrometer via a PTFE line of about 2.4 m length with 3 s of He(g) chase. This line was wrapped with a heating tape (MRC, Holon, Israel) that enabled control over the temperature of the dissolution medium arriving to the NMR tube directly or to a collection tube in the fringe field of the spectrometer. ^15N-Nuclear Magnetic Resonance (NMR) spectra were continuously recorded immediately at the start of the dissolution process. […] In the experiments in body fluids and in experiments in which the hyperpolarized solution was first cooled to temperatures below room temperature, the dissolution media was first collected in a conical tube placed in the spectrometer's fringe field, and then was injected by syringe via a PEEK line to the NMR tube that was placed in the magnet.
For heating this hyperpolarized solution prior to arrival to the NMR tube, the PTFE line leading the hyperpolarized solution out of the spin polarization device was wrapped with a heating tape connected to a temperature controller (MRC, Holon, Israel). In this way, hyperpolarized solutions at temperatures higher than 26° C. could be obtained. For cooling the hyperpolarized solution, the heating tape was not turned on and the dissolution medium was mixed with 0 to 4 mL of D2O at 2° C. in a collection tube placed in ice-water bath in the fringe field of the magnet, prior to injection.
^15N-NMR spectroscopy was performed in a 5.8T NMR spectrometer (RS2D, Mundolsheim, France), using a 10 mm broad-band NMR probe. The chemical shift scale of the spectra presented herein was calibrated based on a separate measurement of a [^15N2]urea standard sample (4M in H2O:D2O 80:20), carried out prior to hyperpolarized ^15N acquisitions, calibrating the [^15N2]urea signal to −306 ppm (relative to nitromethane). For enhancement factor calculation, the spectra were collected with a high flip angle of […] and a repetition time of 2 s. For T1 calculation, the spectra were acquired with a low flip angle of […] and a longer repetition time of 5-10 s.
The temperature in the NMR tube was continuously monitored using an NMR compatible temperature probe (Osensa, Burnaby, BC, Canada).
Determination of the T1 of the hyperpolarized sites was performed by curve fitting of the signal decay to the following equation: S(t)=S0·e^−t/T^1·(cos θ)^t/TR, in which TR, the time between excitations, and θ, the nutation angle of excitation, are known. Curve fitting was performed using Matlab (Mathworks, Natick, Mass., USA).

[2] = Method: The small amounts of hyperpolarized solution were added to the blood sample at 0, 3, 6, 7.25, and 9.17 min from arrival of the solution to the collection tube.

Structure (SMILES)	time hyperpolarized signal observed [1]	time hyperpolarized state observed ([1]; D2O, 5.8 T, FIG. 3A)	time ^15N signal visible ([1]; physiological saline, 38° C., 5.8 T, pulse every 8 s)	time signal observed in blood ([2]; injection 1 (0 min; solution 16.4° C.))	time signal observed in blood ([2]; injection 2 (3 min; solution 5.8° C.))	time signal observed in blood ([2]; injection 3 (6 min; solution 2.9° C.))	time signal observed in blood ([2]; injection 4 (7.25 min; solution 2.1° C.))	visibility of hyperpolarized signal in blood ([2]; multiple injections from a single dose stored in ice-water bath)	time signal observed in blood ([2]; previous single injection to blood (FIG. 4E))
O=[15N][O-].[Na+] [[^15N]nitrite, sodium [^15N]nitrite]	55 s								
O=[15N+]([O-])[O-].[Na+] [[^15N]nitrate, sodium [^15N]nitrate]	more than 500 s	about 10 min	about 8 min	2.9 min	2.2 min	1.0 min	0.6 min	up to 9 min	4 min
